Assay results reported in publication PMC4002113.
Results are given in words; binding and its absence hold for the method and conditions named.

Biological target: T1, FAF1-ΔUBX(1–560) (murine) (UniProt P54731)
T1 sequence (chain, NanoTemper495-N-hydroxysuccinimide blue/red dye label (in the MST)): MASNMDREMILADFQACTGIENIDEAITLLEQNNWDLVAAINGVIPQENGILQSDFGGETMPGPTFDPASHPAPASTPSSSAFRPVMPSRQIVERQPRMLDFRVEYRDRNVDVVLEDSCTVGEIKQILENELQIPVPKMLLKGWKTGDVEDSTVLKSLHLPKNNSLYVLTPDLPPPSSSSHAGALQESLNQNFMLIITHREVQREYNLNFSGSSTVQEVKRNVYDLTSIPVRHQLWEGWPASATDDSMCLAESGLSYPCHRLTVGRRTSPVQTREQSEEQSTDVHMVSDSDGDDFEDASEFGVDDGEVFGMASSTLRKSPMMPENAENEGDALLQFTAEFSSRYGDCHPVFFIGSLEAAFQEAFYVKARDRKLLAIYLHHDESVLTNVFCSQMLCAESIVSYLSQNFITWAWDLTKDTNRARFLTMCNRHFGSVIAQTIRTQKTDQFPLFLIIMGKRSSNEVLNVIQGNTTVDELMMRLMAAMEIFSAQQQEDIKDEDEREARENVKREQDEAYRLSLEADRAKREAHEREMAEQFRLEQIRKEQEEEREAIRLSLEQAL
Test: condition: full-length p97 between 135 and 0.0041 μM; MST; 0.06 μM dye-labelled FAF1 kept constant, full-length p97 titrated between 135 and 0.0041 μM; 20 mM HEPES, 150 mM KCl, pH 7.4; 30 °C; average of two experiments, Hill equation fit; both purified

binding: no binding
Substance: C-terminally His-tagged full-length p97 (residues 1–806) (from UniProt Q01853 1-806)
